## Primary screen of a compound library

Protein sequences, listed by entry. Tags and fused reporters are not part of them. Residues count along the entry.
UniProt A4I591, 1-473: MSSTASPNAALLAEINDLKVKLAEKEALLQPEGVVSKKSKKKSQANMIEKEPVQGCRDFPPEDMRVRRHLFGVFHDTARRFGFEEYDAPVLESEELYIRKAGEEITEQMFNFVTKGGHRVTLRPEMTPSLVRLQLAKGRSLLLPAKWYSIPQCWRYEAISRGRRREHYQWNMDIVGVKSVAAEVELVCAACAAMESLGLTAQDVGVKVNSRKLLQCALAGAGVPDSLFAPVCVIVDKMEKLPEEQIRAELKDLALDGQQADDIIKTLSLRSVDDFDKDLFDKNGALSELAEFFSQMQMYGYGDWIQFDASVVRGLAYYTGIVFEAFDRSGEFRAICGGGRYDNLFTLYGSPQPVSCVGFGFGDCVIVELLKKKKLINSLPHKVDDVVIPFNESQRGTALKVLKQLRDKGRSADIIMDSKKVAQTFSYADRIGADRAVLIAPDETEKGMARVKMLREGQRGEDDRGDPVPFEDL

From ChEMBL document CHEMBL3988442, “University of Dundee, Small-Polar-MMV Screening Library” (2021).

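Histidine-tRNA ligase, Leishmania infantum (UniProt A4I591). Enzyme assay of histidyl-tRNA synthetase; the read-out is not stated. Tested at 30 µM. Direction is inferred from retests: higher values go with stronger inhibition. The assay is labelled LdHisRS but filed under L. infantum. Of about 69,000 compounds tested this way, about 410 (0.6%) reached 50% or more in at least one test.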

Results are given as percent effect. How 0% and 100% were set is not recorded. Most values in the screen are low, and negative values occur. The compounds are a random part of those screened.

| Compound | Percent Effect |
|---|---|
| `O=C(NCc1csc(-c2cnccn2)n1)c1cnn2c1CCCC2` | 8.861 |
| `O=C(COCc1ccccc1)Nc1ccccn1` | 4.8 |
| `CC(C)Cc1cc(NC(=O)c2ccccc2)n(C)n1` | 12.17 |
| `Cc1cnn(CCNCc2csc(-c3ccco3)n2)c1` | 28.57 |
| `Cc1nc[nH]c1CN1CCOC(CCNC(=O)c2ccsc2)C1` (configuration not stated) | 17.14 |
| `CN1CCOC(CNCc2c(Cl)nc3ccccn23)C1` (configuration not stated) | 19.51 |
| `O=S(=O)(C1CC1)N1CCC2(CCCN(Cc3ccccn3)C2)CC1` | 15.09 |
| `CCc1ncc(CN(C)C(=O)Nc2cccnc2N2CCCC2)s1` | 19.7 |
| `NCc1cnn(-c2ccccc2C(=O)NCCc2ccncc2)c1` | 12 |
| `Cc1cc(C)n(CC(=O)N2CCCC2c2cc3cccnc3[nH]2)n1` (configuration not stated) | 7.092 |
| `Cc1ccc(OC2(C(=O)NC(C)Cc3ccncc3)CCNCC2)cc1` (configuration not stated) | 12.9 |
| `O=C(NCc1cc[nH]n1)NCC(O)c1ccc(F)cc1F` (configuration not stated) | 14.86 |
| `CCc1nc(CN(C)C2CCN(Cc3nnc(C4CCC4)o3)C2)no1` (configuration not stated) | 13.68 |
| `CN1Cc2c(C(=O)NC3CCCCC3)ncn2-c2ccccc2S1(=O)=O` | 7.447 |
| `CCOCc1nc2c(c(N(C)Cc3nonc3C)n1)CCNCC2` | 7.527 |
| `CN(Cc1cn2c(n1)CN(C1CCOCC1)CC2)Cc1ccco1` | -5 |
| `Cc1ccc(C(CC(=O)O)NC(=O)CCc2cccs2)cc1` (configuration not stated) | 12.39 |
| `COCCNC(=O)NC(C)COc1ccc(F)cc1F` (configuration not stated) | 1.37 |
| `CC(NCc1cccnc1)c1cc2c(cc1Br)OCCO2` (configuration not stated) | 15.15 |
| `CS(=O)(=O)N1CCO[C@@H]2CN(C(=O)C3CCOC3)CC[C@@H]2C1` (some centres not stated) | -11.71 |
| `CC(C)CN1CCC(NC(=O)c2ccc(Cl)cc2Cl)CC1` | 18.52 |
| `c1cnc(N2CCOCC3(CCCN(Cc4cc[nH]n4)C3)C2)nc1` (configuration not stated) | 11.11 |
| `c1cncc(CN2CCOC(c3ncn4c(C5CC5)cccc34)C2)c1` (configuration not stated) | 18.97 |
| `Cn1ccnc1CN1CCCN(C(=O)c2ccc3c(c2)OCO3)CC1` | 11.61 |
| `Cn1cccc1C(=O)NCc1cn2c(n1)CN(c1ncccn1)CC2` | 9 |
| `C[C@H]1C[C@H]2CN(S(=O)(=O)c3ccc(F)cc3)CC[C@H]2O1` | 15.38 |
| `CCCN(CCOC)C(=O)c1cc(Cn2c(C)nc3ccccc32)[nH]n1` | 16.78 |
| `O=C(NC1CCCC1)NC1CCC(C(=O)N2CCSCC2)CC1` (configuration not stated) | 0.9434 |
| `CCN1Cc2c(C(=O)NCC3CC3)ncn2-c2ccccc2S1(=O)=O` | 11.43 |
| `CCc1cnc(C)nc1NCCNc1nc(C)cc(=O)[nH]1` | 0 |
| `CCn1ccc(NC(=O)CCc2c(C)nn(C)c2C)n1` | -2.381 |
| `O=S(=O)(c1ccc(-c2nc3c([nH]2)CCNC3)cc1)N1CCCC1` | 20 |
| `CN1CCO[C@@H]2CN(C(=O)c3ccc4[nH]ccc4c3)CC[C@@H]2C1` | 8 |
| `COc1nc(C)ccc1CNC(=O)NC(C)Cc1c(C)nn(C)c1C` (configuration not stated) | 2.679 |
| `O=C(c1cscn1)N1CCO[C@H]2[C@@H](Oc3ccccn3)CC[C@@H]21` | 7 |
| `COc1cnc(CSc2nnc(C)s2)cc1OCC(=O)NC(C)(C)C` | 10.53 |
| `CCOCC(=O)N1Cc2[nH]nc(COCC3CC3)c2C1` | 6.897 |
| `COc1cccc(NC(=O)N(CCO)Cc2ccsc2)c1` | 22.12 |
| `CN1CCN([C@@H]2CCN(C(N)=O)[C@H]2Cc2ccccc2)CC1` | 7.692 |
| `Cc1nccn1-c1cccc(N2CCC(OCC3CCCCO3)CC2)n1` (configuration not stated) | 3.54 |
| `CCNc1ncc(C(=O)NCc2csc(-c3cnccn3)n2)cn1` | 15.69 |
| `CC(NC1CCN(CC(=O)N(C)C)CC1)c1cnn(C(C)C)c1` (configuration not stated) | -6.024 |
| `O=C(Cc1cccs1)NS(=O)(=O)c1cccc2cnccc12` | 9.877 |
| `COc1ccc(C(=O)N(Cc2cnn(C)c2)C(C)C)cc1OC(F)F` | 16.96 |
| `Cc1ccc(CN2CCN(C(=O)C3CCC3)[C@@H]3CS(=O)(=O)C[C@@H]32)cc1C` | 20.55 |
| `Cc1c(Cl)cc(C(=O)N(CCO)Cc2nccn2C)cc1Cl` | 11.83 |
| `COCCN1CCN(S(=O)(=O)c2ccccc2)Cc2cccnc21` | 18.87 |
| `CC1CN(C)c2ccccc2CN1C(=O)c1cnsn1` (configuration not stated) | 9.677 |
| `CC(NC(=O)CCOc1cccc(F)c1)c1nnc2n1CCC2` (configuration not stated) | 14.91 |
| `CC(NC(=O)CCCOc1ccccc1)c1nnc2n1CCCCC2` (configuration not stated) | 23.81 |
| `Cc1ccc(CN2CC3(CCN(S(=O)(=O)c4ccccc4)C3)C2)o1` | 21.36 |
| `CSCCC(=O)N1C[C@@H](C)[C@](O)(C(C)C)C1` | 9.574 |

The last 6 entries again:

* COCCN1CCN(S(=O)(=O)c2ccccc2)Cc2cccnc21 | 18.87%
* CC1CN(C)c2ccccc2CN1C(=O)c1cnsn1 (configuration not stated) | 9.677%
* CC(NC(=O)CCOc1cccc(F)c1)c1nnc2n1CCC2 (configuration not stated) | 14.91%
* CC(NC(=O)CCCOc1ccccc1)c1nnc2n1CCCCC2 (configuration not stated) | 23.81%
* Cc1ccc(CN2CC3(CCN(S(=O)(=O)c4ccccc4)C3)C2)o1 | 21.36%
* CSCCC(=O)N1C[C@@H](C)[C@](O)(C(C)C)C1 | 9.574%